No constants are given. Whether binding was seen depends on the method and setting. Binding seen in cells or lysates may run through a third protein. These calls come from enrichment with a bait or labelling near it, and not all partners need be listed.
B1: ATP-dependent RNA helicase DHX8 (Dhx8), endogenous in Tregs (enzyme, UniProt A2A4P0 1-1244)
chain: MAVAVAAAGVLMGSEPGPAEELAKLEYLSLVSKVCTELDNHLGINDKDLAEFVISLAEKNTTFDTFKASLVKNGAEFTDSLISNLLRLIQTMRPPAKPSTSKDPVVKPKTEKEKLRELFPVLCQPDNPSARTMLDEEDVKVAVDVLKELEALMPSAAGQEKQRDPEHRDRTKKKKRSRSRDRDRDRDRDRDRDRDRDRDRDKDRERDRDRERDRERDRERDHKRRHRSRSRSHSRTRERTKGKSRYRSRSRSQSPFKDRKDREKYGERNLDRWRDKHVDRPPPEEPAIGDIYNGKVTSIMQFGCFVQLEGLRKRWEGLVHISELRREGRVANVADVVSKGQRVKVKVLSFTGTKTSLSMKDVDQETGEDLNPNRRRNLVGETNEETSMRNPDRPTHLSLVSAPEVEDDSLERKRLTRISDPEKWEIKQMIAANVLSKEEFPDFDEETGILPKVDDEEDEDLEIELVEEEPPFLRGHTKQSMDMSPIKIVKNPDGSLSQAAMMQSALAKERRELKQAQREAEMDSIPMGLNKHWVDPLPDAEGRQIAANMRGIGMMPNDIPEWKKHAFGGNKASYGKKTQMSILEQRESLPIYKLKEQLVQAVHDNQILIVIGETGSGKTTQITQYLAEAGYTSRGKIGCTQPRRVAAMSVAKRVSEEFGCCLGQEVGYTIRFEDCTSPETVIKYMTDGMLLRECLIDPDLTQYAIIMLDEAHERTIHTDVLFGLLKKTVQKRQDMKLIVTSATLDAVKFSQYFYEAPIFTIPGRTYPVEILYTKEPETDYLDASLITVMQIHLTEPPGDILVFLTGQEEIDTACEILYERMKSLGPDVPELIILPVYSALPSEMQTRIFDPAPPGSRKVVIATNIAETSLTIDGIYYVVDPGFVKQKVYNSKTGIDQLVVTPISQAQAKQRAGRAGRTGPGKCYRLYTERAYRDEMLTTNVPEIQRTNLASTVLSLKAMGINDLLSFDFMDAPPMETLITAMEQLYTLGALDDEGLLTRLGRRMAEFPLEPMLCKMLIMSVHLGCSEEMLTIVSMLSVQNVFYRPKDKQALADQKKAKFHQTEGDHLTLLAVYNSWKNNKFSNPWCYENFIQARSLRRAQDIRKQMLGIMDRHKLDVVSCGKSTVRVQKAICSGFFRNAAKKDPQEGYRTLIDQQVVYIHPSSALFNRQPEWVVYHELVLTTKEYMREVTTIDPRWLVEFAPAFFKVSDPTKLSKQKKQQRLEPLYNRYEEPNAWRISRAFRRR
B2: annexin A4 (Anxa4), endogenous in Tregs (protein, UniProt P97429 1-319)
chain: MEAKGGTVKAASGFNATEDAQTLRKAMKGLGTDEDAIIGILAYRNTAQRQEIRSAYKSTIGRDLIEDLKSELSSNFEQVILGLMTPTVLYDVQELRRAMKGAGTDEGCLIEILASRTPEEIRRINQTYQQQYGRSLEEDICSDTSFMFQRVLVSLSAAGRDEGNYLDDALMKQDAQELYEAGEKRWGTDEVKFLSILCSRNRNHLLHVFDEYKRISQKDIEQSIKSETSGSFEDALLAIVKCMRSKPSYFAERLYKSMKGLGTDDNTLIRVMVSRAEIDMLDIRASFKRLYGKSLYSFIKGDTSGDYRKVLLVLCGGDD
B3: protein phosphatase 1 regulatory subunit 12A (Ppp1r12a), endogenous in Tregs (protein, UniProt Q9DBR7 1-1029)
chain: MKMADAKQKRNEQLKRWIGSETDLEPPVVKRQKTKVKFDDGAVFLAACSSGDTDEVLKLLHRGADINYANVDGLTALHQACIDDNVDMVKFLVENGANINQPDNEGWIPLHAAASCGYLDIAEFLIGQGAHVGAVNSEGDTPLDIAEEEAMEELLQNEVNRQGVDIEAARKEEERVMLRDARQWLNSGHISDVRHAKSGGTALHVAAAKGYTEVLKLLIQAGYDVNIKDYDGWTPLHAAAHWGKEEACRILVDNLCDMETVNKVGQTAFDVADEDILGYLEELQKKQTLLHSEKRDKKSPLIESTANMENNQPQKAFKNKETLIIEPEKNASRIESLEHEKADEEEEGKKDESSCSSEEDEEDDSESEAETDKTKPMASVSNAHTSSTQAAPAAVTAPTLSSNQGTPTSPVKKFPISTTKISPKEEERKDESPASWRLGLRKTGSYGALAEISASKEAQKEKDTAGVMRSASSPRLSSSLDNKEKEKDNKGTRLAYVTPTIPRRLASTSDIEEKENRESSSLRTSSSYTRRKWEDDLKKNSSINEGSTYHRSCSFGRRQDDLISCSVPSTTSTPTVTSAAGLQRSLPSSTSTAAKTPPGSSSAGTQSSTSNRLWAEDSTEKEKDSAPTAVTIPVAPTVVNAAAPSTTTLTTTTAGTVSEVRERRRSYLTPVRDEESESQRKARSRQARQSRRSTQGVTLTDLQEAEKTIGRSRSTRTREQENEEKEKEEKEKQDKEKQEEKKESEASREDEYKQKYSRTYDETYTRYRPVSTSSSSAPSSSSLSTLGSTLYASSQLNRPNSLVGITSAYSRGLAKENEREGEKKEEEKEGEDKSQPKSIRERRRPREKRRSTGVSFWTQDSDENEQERQSDTEDGSSKRETQTDSVSRYDSSSTSSSDRYDSLLGRSASYSYLEDRKPYSSRLEKDDSTDFKKLYEQILAENEKLKAQLHDTNMELTDLKLQLEKATQRQERFADRSQLEMEKRERRALERRISEMEEELKMLPDLKADNQRLKDENGALIRVISKLSK

The chains behind the UniProt entries cited, without tags or fusion partners. Where a name states a change or a piece, a line headed by the entry shows the natural chain unless it says otherwise.
UniProt B2UKV9: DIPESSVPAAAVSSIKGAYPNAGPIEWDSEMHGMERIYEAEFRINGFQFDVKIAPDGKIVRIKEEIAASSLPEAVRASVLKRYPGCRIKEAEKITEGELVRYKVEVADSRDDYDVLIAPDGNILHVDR
UniProt Q6PIJ4: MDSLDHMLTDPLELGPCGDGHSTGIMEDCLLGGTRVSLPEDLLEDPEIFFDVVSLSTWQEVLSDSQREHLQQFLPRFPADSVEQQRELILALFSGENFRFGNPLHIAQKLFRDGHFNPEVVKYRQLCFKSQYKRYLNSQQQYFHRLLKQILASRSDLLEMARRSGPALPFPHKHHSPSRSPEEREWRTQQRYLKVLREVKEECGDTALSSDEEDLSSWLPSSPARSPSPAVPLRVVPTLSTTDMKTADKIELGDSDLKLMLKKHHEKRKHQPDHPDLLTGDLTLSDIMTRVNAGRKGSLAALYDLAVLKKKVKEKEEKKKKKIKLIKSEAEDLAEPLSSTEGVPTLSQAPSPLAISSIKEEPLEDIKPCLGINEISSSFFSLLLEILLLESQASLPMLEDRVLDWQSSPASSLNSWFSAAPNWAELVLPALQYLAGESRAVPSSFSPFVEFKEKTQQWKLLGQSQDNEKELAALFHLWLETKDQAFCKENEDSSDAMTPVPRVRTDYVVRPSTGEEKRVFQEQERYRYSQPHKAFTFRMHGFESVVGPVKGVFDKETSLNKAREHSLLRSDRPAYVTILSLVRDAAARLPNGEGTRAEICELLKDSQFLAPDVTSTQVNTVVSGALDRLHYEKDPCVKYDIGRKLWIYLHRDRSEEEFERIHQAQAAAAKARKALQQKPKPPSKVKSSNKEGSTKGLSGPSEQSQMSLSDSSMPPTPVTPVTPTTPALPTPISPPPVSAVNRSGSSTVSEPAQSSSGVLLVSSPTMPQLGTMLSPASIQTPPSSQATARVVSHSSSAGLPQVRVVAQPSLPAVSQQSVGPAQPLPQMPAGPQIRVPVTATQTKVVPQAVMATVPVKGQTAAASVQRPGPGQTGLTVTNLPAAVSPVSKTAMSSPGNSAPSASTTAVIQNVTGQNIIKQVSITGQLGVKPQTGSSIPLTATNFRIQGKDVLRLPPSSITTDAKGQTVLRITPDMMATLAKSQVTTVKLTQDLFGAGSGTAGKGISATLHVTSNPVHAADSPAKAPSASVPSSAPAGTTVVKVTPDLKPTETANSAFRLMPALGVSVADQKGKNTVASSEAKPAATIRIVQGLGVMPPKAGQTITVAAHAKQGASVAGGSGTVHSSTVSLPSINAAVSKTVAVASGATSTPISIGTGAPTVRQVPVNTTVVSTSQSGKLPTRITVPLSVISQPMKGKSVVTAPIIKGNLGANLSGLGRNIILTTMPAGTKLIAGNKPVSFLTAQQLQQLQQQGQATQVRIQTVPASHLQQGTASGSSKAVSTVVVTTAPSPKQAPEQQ

target: His-tagged Amuc_1409 protein (Akkermansia muciniphila) (UniProt B2UKV9); assay: affinity purification with mass spectrometry; Dynabeads His-tag magnetic beads preincubated with vehicle or His-tagged Amuc_1409 in PBS for 2 h at room temperature, washed with 0.01% PBST, incubated with Tregs cell lysates overnight at 4 °C, washed four times with 0.01% PBST; bound proteins identified by label-free quantitative proteomics; only the target purified

Molecule | binding
nuclear factor related to kappa-B-binding protein (Nfrkb), endogenous in Tregs (from UniProt Q6PIJ4 1-1296) | binds
B1 | binds
B2 | binds
B3 | binds

Source: article PMC12376690
